{
  "source": "patent US9878005B2",
  "about": "“Method of promoting wound healing with hyodxia-induced mitogenic factor” (THE JOHNS HOPKINS UNIVERSITY, priority 2003, dated 2018)",
  "key": {"[1]": {"test_system": "Akt phosphorylation (PI3K/Akt pathway) in RPSM", "assay": "Western blot for pAkt and Akt in RPSM", "assay_type": "cell-based, rat", "details": "inhibitor 10 μmol/L, HIMF 5×10^−8 mol/L, 5 minutes", "protocol": "Western blots. The tissue collection and homogenization were performed as described before^1. HIMF was detected with 1:1000 dilution of the anti-HIMF antibody (raised in rabbit using the peptide CENKVKELLANPANYP (SEQ ID NO: 10) conjugated to keyhole limpet hemocyanin as the antigen) followed by 1:3000 dilution of goat anti-rabbit HRP-labeled antibody (BioRad, Hercules, Calif.). The specificity of the anti-HIMF antibody was preliminarily characterized with peptide competition. The peptide used as the immunogen blocked only the HIMF band and had no effect on the nonspecific bands. For phospho-Akt (pAkt) and Akt blots, RPSM were lysed in CelLytic-M (Sigma, St. Louis, Mo.) supplemented with 1 mM PMSF and 1:100 of protease inhibitor cocktail, phosphatase inhibitor cocktail 1 and 2 (Sigma, St. Louis, Mo.). 18 μg of protein in equal volume was subjected to electrophoresis in 4-20% polyacrylamide gel (BioRad, Hercules, Calif.). After transfer to nitrocellulose membrane, the membrane was first probed with anti-pAkt1/2/3(Thr308)(1:500, (Santa Cruz Biotechnology, Santa Cruz, Calif.). Then it was stripped and reprobed with anti-Akt1/2/3 (1:500, (Santa Cruz Biotechnology, Santa Cruz, Calif.)."}, "[2]": {"test_system": "rat pulmonary microvascular smooth muscle cells (RPSM)", "assay": "3H-thymidine incorporation assay (RPSM proliferation)", "assay_type": "cell-based", "details": "LY294002 10 μmol/L or 30 μmol/L; HIMF 5×10^−8 mol/L", "text": "Cell culture and ^3H-thymidine incorporation assays. Rat pulmonary microvascular smooth muscle cells (RPSM) were isolated from male Sprague-Dawley rats (150-200 g) according to a published method2. Briefly, after the pulmonary artery was flushed with phosphate buffered saline (PBS), it was infused with 2% iron oxide suspension in 0.5% agar. The air spaces were filled with agar, the subpleural margins were harvested and partially collagenase digested, and the microvessels were separated magnetically. The identity of RPSM was confirmed by characteristic appearance on phase-contrast microscopy and indirect immunofluorescent antibody staining for smooth muscle-specific isoforms of […] and myosin heavy chain. RPSM were grown in DMEM/F12 medium supplemented with 10% fetal bovine serum (FBS), 2 mM of glutamine, […] of penicillin and 100 μg/ml of streptomycin. Passage 3 to 5 cells were used in the experiments.\nThe cells were seeded in 24-well plates at 5×10^4/well. After synchronization with serum-free DMEM/F12 (supplemented with 1% Bovine serum albumin (BSA)) for 24 to 48 hours, the cells were treated with the specified agents and 0.1 μCi/well (or 1 μCi/well) of 3H-thymidine in the serum-free DMEM/F12 for 48 hours. […] 3H-thymidine incorporation was measured with a Beckman 6500 scintillation counter in 10 ml of scintillation cocktail."}},
  "note": "At least one compound was matched to its structure with a doubt left.",
  "data": [
    {"smiles": "O=c1cc(N2CCOCC2)oc2c(-c3ccccc3)cccc12", "note": "[LY294002, 2-(4-morpholinyl)-8-phyenyl-4H-1-benzopyran-4-one, reference compound]", "values": [
      {"measurement": "inhibition of HIMF-activated Akt phosphorylation", "setting": "[1]", "value": "inhibited"},
      {"measurement": "inhibition of HIMF-stimulated RPSM proliferation", "setting": "[2]", "value": "inhibited"}
    ]}
  ]
}
